Measurements as given in publication doi:10.1101/2024.07.05.602290.
No constants are given. Whether binding was seen depends on the method and setting. Binding seen in cells or lysates may run through a third protein. Some entries that bind do so weakly or less than the wild type.

Amino acid sequences for entries named in this document (tags omitted). A change or cut given only in a name is not applied to a line headed by its entry. Residues count along the entry.
UniProt P05161, residues 1-157: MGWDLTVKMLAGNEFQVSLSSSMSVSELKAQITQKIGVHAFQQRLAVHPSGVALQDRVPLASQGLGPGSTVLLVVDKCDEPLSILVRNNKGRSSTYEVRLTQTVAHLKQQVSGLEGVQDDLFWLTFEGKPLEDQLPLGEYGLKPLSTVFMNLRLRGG
UniProt P08648: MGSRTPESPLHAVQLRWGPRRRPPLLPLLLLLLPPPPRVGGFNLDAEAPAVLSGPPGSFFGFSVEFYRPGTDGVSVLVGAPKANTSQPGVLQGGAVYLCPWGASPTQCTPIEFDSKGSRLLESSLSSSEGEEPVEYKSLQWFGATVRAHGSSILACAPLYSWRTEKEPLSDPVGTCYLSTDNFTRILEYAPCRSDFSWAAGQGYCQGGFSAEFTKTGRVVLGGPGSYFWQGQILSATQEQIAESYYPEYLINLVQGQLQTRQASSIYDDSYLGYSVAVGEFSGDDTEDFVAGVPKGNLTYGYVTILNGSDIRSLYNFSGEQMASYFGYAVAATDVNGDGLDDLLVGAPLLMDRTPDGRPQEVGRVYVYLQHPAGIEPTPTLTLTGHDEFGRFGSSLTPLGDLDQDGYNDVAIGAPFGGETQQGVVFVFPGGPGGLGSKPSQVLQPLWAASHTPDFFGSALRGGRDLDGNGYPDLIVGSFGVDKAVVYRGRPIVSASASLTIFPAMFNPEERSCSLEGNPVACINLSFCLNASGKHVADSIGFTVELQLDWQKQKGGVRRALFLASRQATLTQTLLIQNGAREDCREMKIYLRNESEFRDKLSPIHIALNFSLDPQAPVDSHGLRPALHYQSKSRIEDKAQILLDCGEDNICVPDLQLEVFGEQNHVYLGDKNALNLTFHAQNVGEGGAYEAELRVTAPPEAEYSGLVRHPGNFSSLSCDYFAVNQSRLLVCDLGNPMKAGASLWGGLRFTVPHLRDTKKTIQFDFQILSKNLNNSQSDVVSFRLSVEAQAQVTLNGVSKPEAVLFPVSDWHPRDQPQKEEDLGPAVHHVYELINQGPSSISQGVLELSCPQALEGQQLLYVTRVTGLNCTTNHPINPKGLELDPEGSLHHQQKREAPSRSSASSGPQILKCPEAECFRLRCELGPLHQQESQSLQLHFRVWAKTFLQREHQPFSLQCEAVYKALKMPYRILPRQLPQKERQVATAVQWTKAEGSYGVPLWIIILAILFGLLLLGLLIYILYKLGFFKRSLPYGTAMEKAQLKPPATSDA

Target: purified recombinant ISG15 protein (Interferon Stimulated Gene 15) (UniProt P05161)
Experiment: co-IP

binding: binds
Substance: cell surface α5β1 integrin of A549 cells (from UniProt P08648 42-1049; P05556 21-798) (receptor)
